According to patent US11447445B2, “Diabetes and metabolic syndrome treatment with a novel dual modulator of soluble epoxide hydrolase and peroxisome proliferator-activated receptors” (priority 2015, dated 2022):
For at least one compound, name, drawing or mass did not settle the structure.

Experiments:
PPARγ target gene CD36 = experiment: CD36 expression in mouse liver (qPCR); type: in vivo, mice; details: after 2 weeks 30 mg/kg bw drinking water application
ZSF1 obese rats = experiment: ZSF1 obese type 2 diabetic rat model, 8 weeks treatment; type: in vivo

CCC(Cc1ccc(C(=O)NCc2ccc(OC)cc2C(F)(F)F)cc1)C(=O)O (centres unmarked) [Compound 14c, 2-Ethyl 3-14-(N-(4-methoxy(2-trifluoromethyl)benzyl)benzamide)1 propionic acid]
CD36 expression in liver (PPARγ target gene CD36): upregulation
fasting blood glucose levels (ZSF1 obese rats; RB394 for 4 weeks or 8 weeks): lowered fasting blood glucose levels
glucose tolerance (ZSF1 obese rats; RB394 for 4 weeks or 8 weeks): improved glucose tolerance
systolic blood pressure (ZSF1 obese rats; RB394 for 8 weeks, week 16 to 24 of age): lowered systolic blood pressure
urinary protein excretion (ZSF1 obese rats; RB394 started at 16 weeks of age): prevented the increase in urinary protein excretion
